Reference: patent US8158671B2, “Indole and indoline cyclopropyl amide derivatives as EP4 receptor antagonists” (Merck Canada Inc., priority 2007, dated 2012)
Some entries share one result that the patent states for a list of compounds.

Chains of the proteins cited; added tags and fusions are not shown. Lines headed by an entry give the natural chain unless they say otherwise; changes in a name come on top.
UniProt P35408: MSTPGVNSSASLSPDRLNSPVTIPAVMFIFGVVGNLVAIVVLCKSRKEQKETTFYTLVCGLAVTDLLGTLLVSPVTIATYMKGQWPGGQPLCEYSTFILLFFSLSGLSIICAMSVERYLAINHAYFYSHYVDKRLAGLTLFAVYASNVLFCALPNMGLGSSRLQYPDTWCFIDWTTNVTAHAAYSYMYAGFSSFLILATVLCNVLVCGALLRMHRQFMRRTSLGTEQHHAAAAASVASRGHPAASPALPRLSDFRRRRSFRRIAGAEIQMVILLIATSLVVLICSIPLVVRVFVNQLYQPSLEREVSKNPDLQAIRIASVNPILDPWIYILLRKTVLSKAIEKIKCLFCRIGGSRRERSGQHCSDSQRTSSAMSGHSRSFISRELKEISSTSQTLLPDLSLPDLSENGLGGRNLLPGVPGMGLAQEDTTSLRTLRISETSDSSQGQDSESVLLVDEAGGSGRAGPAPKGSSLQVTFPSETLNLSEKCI

Tests used:
hEP4 [1] = target: T1, hEP4 (Homo sapiens, UniProt P35408); experiment: EP4 receptor antagonist assay, whole cell cAMP accumulation in HEK-293(ebna)-hEP4 cells; assay type: cell-based; set-up: expressed in transfected cells; settings: inhibition of PGE2-induced (EC70) cAMP accumulation
hEP4 [2] = target: T1, hEP4; experiment: Prostanoid receptor binding assay (EP4), membranes of transfected HEK 293(ebna) cells; set-up: expressed in transfected cells; membranes prepared by differential centrifugation; settings: radioligand binding, membranes of HEK 293(ebna) cells, 10 mM MES/KOH pH 6.0; read-out: IC50s in binding assay for the EP4 receptor

Structure (SMILES) | EC50 (hEP4 [1]) [µM] | IC50 (hEP4 [2]) [µM]
O=C(O)c1ccc(C2(NC(=O)c3cccc4c3N(Cc3ccc(Cl)c(Cl)c3)CC4)CC2)cc1 [Example 1, Potassium 4-[1-({[1-(3,4-dichlorobenzyl)-2,3-dihydro-1H-indol-7-yl]carbonyl}amino)cyclopropyl]benzoate] | ≤ 0.5 | < 0.5
O=C(NC1(c2ccc(-c3nnn[nH]3)cc2)CC1)c1cccc2c1N(Cc1ccc(Cl)c(Cl)c1)CC2 [Example 2, 1-(3,4-dichlorobenzyl)-N-{1-[4-(1H-tetrazol-5-yl)phenyl]cyclopropyl}indoline-7-carboxamide] | ≤ 0.5 | < 0.5
O=C(O)c1ccc(C2(NC(=O)c3cc(F)cc4ccn(Cc5ccc(C(F)(F)F)cc5)c34)CC2)cc1 [Example 4, Potassium 4-{1-[({5-fluoro-1-[4-(trifluoromethyl)benzyl]-1H-indol-7-yl}carbonyl)amino]cyclopropyl}benzoate] | ≤ 0.5 | < 0.5
O=C(O)c1ccc(C2(NC(=O)c3cc(Cl)cc4ccn(Cc5ccc(C(F)(F)F)cc5)c34)CC2)cc1 [Example 5, Potassium 4-{1-[({5-chloro-1-[4-(trifluoromethyl)benzyl]-1H-indol-7-yl}carbonyl)amino]cyclopropyl} benzoate] | ≤ 0.5 | < 0.5
O=C(O)c1ccc(C2(NC(=O)c3cccc4ccn(Cc5ccc(C(F)(F)F)cc5Br)c34)CC2)cc1 [Example 6, Potassium 4-{1-[({1-[2-bromo-4-(trifluoromethyl)benzy1]-1H-indol-7-yl}carbonyl)amino]cyclopropyl} benzoate] | ≤ 0.5 | < 0.5
